Test results reported in PubChem BioAssay AID743472 (Broad Institute, 2014).
These results got no clear call from the source, so the numbers are uncertain.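 The calls were made as follows: active = fitted curve drops past -35% activity change at a concentration no higher than twice the top valid tested dose; inconclusive = no clear call, values can overlap the other calls; inactive = the rest, including activity opposite to the expected direction.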

Assay: A549 cell cytotoxicity, dose response, cytotoxicity control, luminescence, dry powder, set 12 (AID 743472)
Details: A549 viability, CellTiter-Glo ATP luminescence, 72 h; at 26 µM (top of the series)

**Q.** With `CCCCc1ccc2nc(NC(=O)OC)[nH]c2c1` as the molecule, how does the activity change, negative = cytotoxicity read?
**A.** Its activity change, negative = cytotoxicity is inconclusive: -55.4%.
